Experimental data as given in US20020028788A1, “Vaginal active agent delivery procedures and formulations thereof” (priority 1998, published 2002).
At least one compound was matched to its structure with a doubt left.

System: cattle
Assay: Follicular dynamics and oestrus following vaginal oestradiol 17β or intramuscular oestradiol benzoate
Type: in vivo
Settings: range in brackets

Row | SMILES | Interval, treatment to emergence of DF3 (2.5 mg oestradiol 17β, vaginal administration) | Interval, treatment to emergence of DF3 (5.0 mg oestradiol 17β, vaginal administration) | Interval, treatment to emergence of DF3 (2 mg oestradiol benzoate, intramuscular administration)
1 | C[C@]12CC[C@@H]3c4ccc(O)cc4CC[C@H]3[C@@H]1CC[C@@H]2O [oestradiol 17β] | 5.3 ± 0.7 (4-6) d | 2.7 ± 0.6 (1-5) d | 
2 | C[C@]12CC[C@@H]3c4ccc(OC(=O)c5ccccc5)cc4CC[C@H]3[C@@H]1CC[C@@H]2O [oestradiol benzoate] |  |  | 4.0 ± 0.4 (3-5) d
